# Results of single-concentration screens

Data taken from ChEMBL document CHEMBL3988442, “University of Dundee, Small-Polar-MMV Screening Library” (2021).

T. brucei: 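Whole-parasite assay of Trypanosoma brucei over 72 hours; the read-out is not stated. Concentration: 30 µM. The record gives no direction; compounds that gave an IC50 in retests scored well above the rest, so higher reads as stronger inhibition. Values scatter widely below zero; nearly all retest evidence comes from the higher of the two concentrations used. Of about 64,000 compounds tested this way, about 940 (1.5%) reached 50% or more in at least one test.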
Toxoplasma: 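Assay of Toxoplasma gondii numbers, read through their beta-galactosidase reporter with a colour substrate. Tested at 10 µM. Higher reads as fewer parasites (inferred from which compounds were picked for retests). About 67,000 compounds were tested under these conditions; 0.38% (about 260) showed 50% or more at least once.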

Results are given as percent effect. The controls that fix the scale are not given in the record; negative values are as filed. Compounds were drawn at random from those tested, without regard to their results. A dash means the value is not listed here; it may have been measured.

| # | SMILES | T. brucei | Toxoplasma |
|---|---|---|---|
| 1 | `Cc1noc(C)c1CNC(C(=O)N1CCOCC1)C(C)C` (stereo unspecified) | -30.38 | -4.789 |
| 2 | `CN(Cc1cccc(F)c1)C(=O)c1cc2c([nH]c1=O)CCCC2=O` | - | 24.7 |
| 3 | `O=C(N1CCCC1)N1CCc2ncnc(C3CCOC3)c2CC1` (stereo unspecified) | 1.84 | -1.941 |
| 4 | `CCOc1ccc(CN(C)C2CCN(c3cc(C)nn3C)C2=O)cc1` (stereo unspecified) | 7.111 | -2.741 |
| 5 | `CCN(Cc1ccncc1)CC1(O)CCN(C(=O)c2cnn(C)c2)C1` (stereo unspecified) | -11.11 | 4.642 |
| 6 | `CCN(CC(=O)Nc1c(C)nn(C)c1C)CC(O)c1ccc(C)cc1` (stereo unspecified) | -37.09 | 4.16 |
| 7 | `COc1cccc(C2(NC(=O)CCNC(C)=O)CC2)c1` | -40.96 | 4.487 |
| 8 | `COc1ccc(OCCNC(=O)N2CCS(=O)(=O)CC2)cc1` | 0.5973 | 12.91 |
| 9 | `CC(=O)c1cccc(NC(=O)N(CCO)C2CCc3ccccc32)c1` (stereo unspecified) | -48.88 | -1.406 |
| 10 | `[H][C@@]12CN(C(=O)c3ccsc3)C[C@]1([H])C(=O)N(Cc1cccc(C)c1)C2` | -52.19 | 17.02 |
| 11 | `Cn1c(CO)nnc1CC1CCN(Cc2ccc(C#N)cc2)CC1` | 2.212 | 1.212 |
| 12 | `CN(CC(=O)NCc1ccccn1)CC1CCCN1c1cccnn1` (stereo unspecified) | -18.71 | 1.554 |
| 13 | `COc1cccc(S(=O)(=O)CCN2CCCN(C(C)=O)CC2)c1` | -19.79 | -1.872 |
| 14 | `N#Cc1ccc(OCCCN2CCOC(Cn3cncn3)C2)cc1` (stereo unspecified) | -13.01 | -17.44 |
| 15 | `OCC1CCCN1c1cc(N2CCN(c3ccccn3)CC2)ncn1` (stereo unspecified) | 18.5 | -5.729 |
| 16 | `NCC1Cc2cc(-c3cncc(C(=O)N4CCOCC4)n3)cc(Cl)c2O1` (stereo unspecified) | -11.17 | -2.182 |
| 17 | `CCC(C)NC(=O)Cn1ncc2c1c(C)nn2CC` (stereo unspecified) | -103.2 | 22.34 |
| 18 | `Nc1cc(-c2cccc3ccnn23)ccn1` | -26.44 | 0.8999 |
| 19 | `Cn1cc(C(=O)N2CCSc3ccccc32)ccc1=O` | -6.559 | 1.627 |
| 20 | `COc1ccc2c(c1)nc1n2[C@@H](CNC(=O)c2cccnc2)COC1` | -10.65 | -6.835 |
| 21 | `COc1cccc(SCC(=O)N2CCC(N3CCCC3=O)CC2)c1` | -14.6 | 7.611 |
| 22 | `CC(=O)NCC(=O)N1Cc2cc(C#N)ccc2C1c1cnco1` (stereo unspecified) | -59.23 | 1.672 |
| 23 | `CC(Cc1c(F)cccc1F)NC(=O)CN(CC(N)=O)C(C)C` (stereo unspecified) | -17.95 | 18.82 |
| 24 | `O=C(O)C(F)(F)F.[H][C@@]12CCN(Cc3ccc(C)s3)C[C@@]1([H])[C@H](C(=O)NCC1CC1)CCO2` | -9.394 | 9.014 |
| 25 | `CCC(=O)N1CCC2(COCc3cnc(N4CCOCC4)nc32)C1` (stereo unspecified) | -481 | -20.91 |
| 26 | `CSCc1nc(CNC(=O)c2cnn(C(C)C)c2)cs1` | -13.11 | -6.714 |
| 27 | `CCn1cc(NC(=O)Nc2ccc3c(c2)OCCO3)cn1` | - | -3.038 |
| 28 | `CC1CCCN(C(=O)Nc2cccc(CN3CCOC3=O)c2)C1` (stereo unspecified) | -52.8 | 27.09 |
| 29 | `Cc1cnn(CC2CCCN2C(=O)c2nccc3ccccc23)c1` (stereo unspecified) | -14.16 | -4.903 |
| 30 | `COCCN1CCC2(CCCN(c3ncc(F)cn3)C2)C1` (stereo unspecified) | -25.58 | -4.423 |
| 31 | `O=C(Nc1ncn(CC(=O)N2CCCCCC2)n1)C1CCCC1` | - | -4.434 |
| 32 | `O=C1CC(c2ccc(O)cc2)c2c(n3ccsc3nc2=O)N1` (stereo unspecified) | -25.64 | -10.36 |
| 33 | `O=C(O)[C@@H]1CN(CCOCCO)C[C@H]1c1ccccc1` | -47.33 | 7.24 |
| 34 | `COc1cccc(-n2cc(-c3ccnc(N[C@H](CO)C(C)C)n3)cn2)c1` | -84.41 | -2.704 |
| 35 | `CC(C)c1ncc2c(n1)CN(Cc1nnc(Cc3ccccc3)o1)CC2` | - | 15.15 |
| 36 | `CC(C)(C)NC(=O)c1cnc2n1CCCC2` | -59.38 | 3.006 |
| 37 | `O=C1CC(c2ccncc2)C2(CCN(C(=O)c3ccnnc3)CC2)N1` (stereo unspecified) | -26.37 | -34.17 |
| 38 | `CCCn1[nH]c(CNc2ccccc2)nc1=O` | -2.331 | -25.89 |
| 39 | `Cc1cc(-c2cc(S(=O)(=O)N3C[C@H](C4CC4)[C@@H](N)C3)c(C)s2)[nH]n1` | -49.51 | 13.6 |
| 40 | `O=C(c1ccnnc1)N1CCn2cc(CN3CCCCC3)nc2C1` | -259.6 | -52.61 |
| 41 | `Cc1cc(C)n(CCNC(=O)c2ncc[nH]2)c(=O)n1` | -16.42 | -10.09 |
| 42 | `[H][C@@]12COC[C@]1(COc1nccc(C)n1)CN(C(=O)c1cnccn1)C2` | -94.86 | -12.92 |
| 43 | `O=C(O)C(F)(F)F.[H][C@@]12C[C@H](c3nc(C)no3)CN(Cc3ccc(CC)o3)[C@]1([H])CCO2` | -11.18 | 4.896 |
| 44 | `O=C(NC1(c2nnn(Cc3ccncc3)n2)CCCC1)c1ccccc1` | 36.91 | 3.524 |
| 45 | `Oc1nc(N2CCOCC2)nc2nccc(-c3ccccn3)c12` | -15.9 | -1.311 |
| 46 | `O=C(NCCNc1ncccn1)NCCSC(F)(F)F` | -30.03 | 0.3751 |
| 47 | `CC(C)c1nc(CN2CCC(c3ccnn3CCO)CC2)no1` | -31.33 | 2.139 |
| 48 | `O=C(c1ccc(Cl)c(Cl)c1)N1CCCCC1C1OCCO1` (stereo unspecified) | 10.23 | 2.086 |
| 49 | `O=C(O)C(F)(F)F.[H][C@]12CO[C@H](CNC(=O)c3cscn3)[C@@]1([H])CCN(Cc1ccco1)C2` | -41.24 | -18.27 |
| 50 | `O=C(CCc1ccc(F)cc1)NS(=O)(=O)c1ccc2c(c1)OCCCO2` | -53.37 | -0.2245 |
| 51 | `CC(C)N(C)Cc1nnc2n1CCCN(S(=O)(=O)C1CC1)C2.O=C(O)C(F)(F)F` | -51.68 | 2.835 |
| 52 | `N#CCCCn1nnnc1Cc1ccc(Br)cc1` | -40.25 | -2.697 |
| 53 | `COCCCN1CCCC1c1noc(C2CC2)n1` (stereo unspecified) | - | -42.75 |
| 54 | `CC(Nc1nc2c(cnn2C)c(=O)[nH]1)c1ccccn1` (stereo unspecified) | -31.46 | -1.716 |
| 55 | `O=c1[nH]c(-c2ccc(Cl)cc2)nc2c1CCNC2` | -39.77 | 5.36 |
| 56 | `O=C(O)C(F)(F)F.[H][C@@]12CN(Cc3ccoc3)C[C@]1([H])C(=O)N(Cc1ccc(OC)cc1)C2` | -16.77 | -6.55 |
| 57 | `O=C(C1CC=CC1)N1CCC2(CCN(Cc3cccc(F)c3)CC2)C1` | 10.56 | 0.4926 |
| 58 | `Cl.Cl.Cl.O[C@@H]1C[C@@](CNCc2ccccn2)(COc2cccnc2)C[C@@H]1O` | -5.897 | -5.546 |
| 59 | `CN1CCc2nc(C3CCCCN3Cc3ccccc3Cl)ncc2C1` (stereo unspecified) | 24.61 | 16.46 |
| 60 | `N#Cc1cc(N2CCC(CS(N)(=O)=O)CC2)nc2ccccc12` | -20.21 | -5.493 |
| 61 | `CC1CCN(CCNC(=O)c2cncnc2C(C)C)CC1` | 15.95 | -9.305 |
| 62 | `CC(=O)N1CCC(c2c(CN(C)C)cnc3cc(C)nn23)CC1` | -17.17 | 22.52 |

Some entries from above, unchanged:

| SMILES | T. brucei | Toxoplasma |
|---|---|---|
| `CC(C)c1nc(CN2CCC(c3ccnn3CCO)CC2)no1` | -31.33 | 2.139 |
| `Cc1noc(C)c1CNC(C(=O)N1CCOCC1)C(C)C` (stereo unspecified) | -30.38 | -4.789 |
| `CCC(=O)N1CCC2(COCc3cnc(N4CCOCC4)nc32)C1` (stereo unspecified) | -481 | -20.91 |
| `Cn1cc(C(=O)N2CCSc3ccccc32)ccc1=O` | -6.559 | 1.627 |